Results reported in article PMC11894219.
These are yes or no findings as the source states them, for the method shown. Binding seen in cells or lysates may run through a third protein. These calls come from enrichment with a bait or labelling near it, and not all partners need be listed. For part of these data: Tags and fused reporters may be left off the sequences shown.

Chains of the proteins cited; added tags and fusions are not shown.
UniProt P54132: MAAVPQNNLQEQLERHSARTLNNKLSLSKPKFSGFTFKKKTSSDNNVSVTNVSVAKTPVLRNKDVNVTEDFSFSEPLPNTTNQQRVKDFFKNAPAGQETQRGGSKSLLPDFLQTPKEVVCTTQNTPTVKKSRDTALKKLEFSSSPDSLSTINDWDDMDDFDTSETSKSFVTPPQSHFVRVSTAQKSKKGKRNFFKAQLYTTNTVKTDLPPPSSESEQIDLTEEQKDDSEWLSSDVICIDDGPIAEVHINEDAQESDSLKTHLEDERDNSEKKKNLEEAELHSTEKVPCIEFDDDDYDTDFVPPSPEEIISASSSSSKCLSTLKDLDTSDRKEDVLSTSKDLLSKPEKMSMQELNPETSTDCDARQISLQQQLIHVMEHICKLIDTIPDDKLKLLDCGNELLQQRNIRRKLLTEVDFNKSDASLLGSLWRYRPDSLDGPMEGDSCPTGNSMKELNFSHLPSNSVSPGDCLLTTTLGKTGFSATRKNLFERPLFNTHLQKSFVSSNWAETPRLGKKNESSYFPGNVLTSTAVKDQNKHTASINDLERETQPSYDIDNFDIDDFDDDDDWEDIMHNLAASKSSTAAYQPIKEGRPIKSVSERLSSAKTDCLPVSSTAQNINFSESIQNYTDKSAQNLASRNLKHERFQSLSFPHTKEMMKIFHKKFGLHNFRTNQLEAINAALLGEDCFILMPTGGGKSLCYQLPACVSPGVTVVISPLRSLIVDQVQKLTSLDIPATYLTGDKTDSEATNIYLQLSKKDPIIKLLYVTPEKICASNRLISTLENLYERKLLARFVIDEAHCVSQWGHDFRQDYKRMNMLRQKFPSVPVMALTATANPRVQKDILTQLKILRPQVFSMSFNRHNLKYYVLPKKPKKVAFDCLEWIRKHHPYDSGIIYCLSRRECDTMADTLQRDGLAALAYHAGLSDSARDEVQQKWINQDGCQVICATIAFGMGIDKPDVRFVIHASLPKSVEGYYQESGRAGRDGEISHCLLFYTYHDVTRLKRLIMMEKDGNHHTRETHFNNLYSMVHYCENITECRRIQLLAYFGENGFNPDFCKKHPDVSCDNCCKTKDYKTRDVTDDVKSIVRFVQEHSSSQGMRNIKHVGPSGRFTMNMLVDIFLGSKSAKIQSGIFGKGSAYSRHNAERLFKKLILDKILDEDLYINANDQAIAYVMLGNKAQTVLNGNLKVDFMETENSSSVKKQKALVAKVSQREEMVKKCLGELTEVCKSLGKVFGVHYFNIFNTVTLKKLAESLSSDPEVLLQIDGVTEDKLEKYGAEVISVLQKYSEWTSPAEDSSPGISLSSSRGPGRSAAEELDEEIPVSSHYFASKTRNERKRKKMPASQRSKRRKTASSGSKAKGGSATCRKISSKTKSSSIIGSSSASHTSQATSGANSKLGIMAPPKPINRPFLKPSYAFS

Columns and labels:
[1] = target: T1, FLAG-BirA*-RAD54L2 (human) (UniProt Q9Y4B4); test: proximity labelling; BioID with BirA*-RAD54L2 in HEK293; doxycycline and 50 uM biotin for 24 h; streptavidin-sepharose, mass spectrometry; BFDR <=0.01
T1 sequence: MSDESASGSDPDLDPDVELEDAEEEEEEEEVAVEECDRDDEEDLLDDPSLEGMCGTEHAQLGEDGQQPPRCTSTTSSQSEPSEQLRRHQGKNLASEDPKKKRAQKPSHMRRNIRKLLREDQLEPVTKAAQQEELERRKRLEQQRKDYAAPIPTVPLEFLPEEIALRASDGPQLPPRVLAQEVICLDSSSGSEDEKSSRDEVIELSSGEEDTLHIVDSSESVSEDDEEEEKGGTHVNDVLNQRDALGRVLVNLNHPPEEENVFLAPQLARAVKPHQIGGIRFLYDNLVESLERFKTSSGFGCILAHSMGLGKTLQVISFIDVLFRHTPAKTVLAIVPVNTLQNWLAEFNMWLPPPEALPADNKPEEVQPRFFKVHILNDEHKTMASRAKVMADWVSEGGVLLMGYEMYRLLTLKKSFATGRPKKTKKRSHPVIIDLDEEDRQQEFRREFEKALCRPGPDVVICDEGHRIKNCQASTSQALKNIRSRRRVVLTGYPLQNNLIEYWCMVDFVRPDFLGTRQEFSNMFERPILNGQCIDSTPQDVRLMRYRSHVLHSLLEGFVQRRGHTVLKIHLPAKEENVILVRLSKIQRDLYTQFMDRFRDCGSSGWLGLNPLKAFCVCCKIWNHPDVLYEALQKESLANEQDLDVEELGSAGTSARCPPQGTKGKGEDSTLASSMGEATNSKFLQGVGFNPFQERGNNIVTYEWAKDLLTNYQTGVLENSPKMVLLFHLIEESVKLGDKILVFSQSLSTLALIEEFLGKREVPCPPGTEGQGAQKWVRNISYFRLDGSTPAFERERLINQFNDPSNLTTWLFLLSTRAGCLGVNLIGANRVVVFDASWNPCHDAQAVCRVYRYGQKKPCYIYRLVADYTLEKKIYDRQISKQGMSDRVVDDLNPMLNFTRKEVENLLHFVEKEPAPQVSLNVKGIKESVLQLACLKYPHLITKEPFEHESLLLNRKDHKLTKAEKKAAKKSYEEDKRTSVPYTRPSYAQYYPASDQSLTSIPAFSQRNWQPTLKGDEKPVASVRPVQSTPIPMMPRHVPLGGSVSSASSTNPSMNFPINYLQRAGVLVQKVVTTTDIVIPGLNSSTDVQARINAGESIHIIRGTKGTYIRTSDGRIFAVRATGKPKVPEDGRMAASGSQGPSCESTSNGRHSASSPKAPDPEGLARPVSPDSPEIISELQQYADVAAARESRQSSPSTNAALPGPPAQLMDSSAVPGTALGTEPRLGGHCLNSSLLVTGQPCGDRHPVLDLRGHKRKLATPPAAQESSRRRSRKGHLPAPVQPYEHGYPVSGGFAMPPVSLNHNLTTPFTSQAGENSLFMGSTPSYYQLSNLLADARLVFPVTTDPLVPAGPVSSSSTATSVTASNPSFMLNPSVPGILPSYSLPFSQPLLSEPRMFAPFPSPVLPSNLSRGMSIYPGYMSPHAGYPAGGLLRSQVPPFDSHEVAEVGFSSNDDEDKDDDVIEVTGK

FLAG-BirA*-BLM (human) = FLAG-BirA*-BLM (human) (UniProt P54132); test: proximity labelling; BioID with N-terminal BirA* fusions of BLM, TOP3A, RMI1 or RMI2 in HEK293; doxycycline and 50 uM biotin for 24 h; RIPA lysis, streptavidin-sepharose, mass spectrometry; SAINTexpress BFDR <=0.01
FLAG-BirA*-RMI1 (human) = target: T2, FLAG-BirA*-RMI1 (human) (UniProt Q9H9A7); test: as above
T2 sequence: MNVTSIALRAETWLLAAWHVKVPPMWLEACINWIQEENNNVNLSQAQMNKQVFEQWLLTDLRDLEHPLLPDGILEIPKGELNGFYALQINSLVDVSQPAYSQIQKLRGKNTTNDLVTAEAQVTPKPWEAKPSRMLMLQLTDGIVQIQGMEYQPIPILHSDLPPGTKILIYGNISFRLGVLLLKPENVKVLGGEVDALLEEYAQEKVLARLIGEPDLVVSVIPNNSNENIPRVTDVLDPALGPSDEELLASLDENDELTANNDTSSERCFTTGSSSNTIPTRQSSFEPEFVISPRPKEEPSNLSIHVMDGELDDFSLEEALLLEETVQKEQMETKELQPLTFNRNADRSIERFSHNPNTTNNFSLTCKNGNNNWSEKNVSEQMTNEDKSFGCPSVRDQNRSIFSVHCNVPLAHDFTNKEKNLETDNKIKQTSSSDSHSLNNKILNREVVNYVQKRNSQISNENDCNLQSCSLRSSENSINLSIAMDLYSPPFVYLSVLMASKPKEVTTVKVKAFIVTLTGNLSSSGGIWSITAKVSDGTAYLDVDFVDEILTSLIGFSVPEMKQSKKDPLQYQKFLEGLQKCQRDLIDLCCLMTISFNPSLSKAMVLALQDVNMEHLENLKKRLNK

Measured: binding

B1: ZNF451 (protein, UniProt Q9Y4E5 1-1061)
chain: MGDPGSEIIESVPPAGPEASESTTDENEDDIQFVSEGPLRPVLEYIDLVSSDDEEPSTSYTDENIKRKDHIDYQKDKVALTLARLARHVEVEKQQKEEKNRAFREKIDFQHAHGLQELEFIRGHSDTEAARLCVDQWLKMPGLKTGTINCGTKSSFRRGGHTWVSGKPILCPIMHCNKEFDNGHLLLGHLKRFDHSPCDPTITLHGPFFSSFACVVCYKKFVTQQQYRDHLFDKEATDDGHNNNLLPQIIQCFACPNCFLLFSRKEECSKHMSGKNHFHQSFKLGDNKGIAHPISFPSFAKKLLISLCKDVPFQVKCVACHKTLRSHMELTAHFRVHCRNAGPVAVAEKSITQVAEKFILRGYCPDCNQVFVDETSTQNHKQNSGHKVRVINSVEESVLLYCHSSEGNKDPSSDLHLLLDQSKFSSLKRTMSIKESSSLECIAIPKKKMNLKDKSHEGVACVQKEKSVVKTWFCECNQRFPSEDAVEKHVFSANTMGYKCVVCGKVCDDSGVIRLHMSRIHGGAHLNNFLFWCRTCKKELTRKDTIMAHVTEFHNGHRYFYEMDEVEGETLPSSSTTLDNLTANKPSSAITVIDHSPANSSPRGKWQCRICEDMFDSQEYVKQHCMSLASHKFHRYSCAHCRKPFHKIETLYRHCQDEHDNEIKIKYFCGLCDLIFNVEEAFLSHYEEHHSIDYVFVSEKTETSIKTEDDFPVIETSNQLTCGCRESYICKVNRKEDYSRCLQIMLDKGKLWFRCSLCSATAQNLTDMNTHIHQVHKEKSDEEEQQYVIKCGTCTKAFHDPESAQQHFHRKHCFLQKPSVAHFGSEKSNLYKFTASASHTERKLKQAINYSKSLDMEKGVENDLSYQNIEEEIVELPDLDYLRTMTHIVFVDFDNWSNFFGHLPGHLNQGTFIWGFQGGNTNWKPPLNCKIYNYLNRIGCFFLHPRCSKRKDAADFAICMHAGRLDEQLPKQIPFTILSGDQGFLELENQFKKTQRPAHILNPHHLEGDMMCALLNSISDTTKECDSDDNMGAKNTSIGEEFISTEDVELEEAIRRSLEEM
binds: [1] | FLAG-BirA*-BLM (human) | FLAG-BirA*-RMI1 (human)
